Laboratory results taken from patent US20060183130A1 (VANDERBILT UNIVERSITY, published 2006).
Results are given in words; binding and its absence hold for the method and conditions named. Binding seen in cells or lysates may run through a third protein. Some binding calls cover weakened binding; strength is not graded here. Tags and fused reporters may be left off the sequences shown.

Chains of the proteins cited; added tags and fusions are not shown. Residues count along the entry.
UniProt P01108, residues 16-454: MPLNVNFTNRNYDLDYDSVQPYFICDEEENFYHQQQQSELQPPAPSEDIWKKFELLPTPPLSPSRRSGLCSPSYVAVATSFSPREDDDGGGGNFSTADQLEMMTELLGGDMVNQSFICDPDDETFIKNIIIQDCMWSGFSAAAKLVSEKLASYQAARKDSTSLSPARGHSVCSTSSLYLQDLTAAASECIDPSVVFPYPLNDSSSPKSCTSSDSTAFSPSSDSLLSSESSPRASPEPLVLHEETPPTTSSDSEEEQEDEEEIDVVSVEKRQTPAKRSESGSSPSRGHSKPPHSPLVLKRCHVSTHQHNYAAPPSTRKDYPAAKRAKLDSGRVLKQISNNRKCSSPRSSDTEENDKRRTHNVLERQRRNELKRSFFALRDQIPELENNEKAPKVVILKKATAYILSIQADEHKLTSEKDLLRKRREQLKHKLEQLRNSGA

Molecular target: c-Myc (exogenous, full length, expressed from pRcCMV-Myc2) (UniProt P01108)
Assay: co-IP (data not shown)

B1: GFP-ARF 26-44 (peptide, not shown: large carriers)
chain: KFVRSRRPRTASCALAFVN
binding: binds
